From publication PMC11021197
Results are given in words; binding and its absence hold for the method and conditions named. Binding seen in cells or lysates may run through a third protein. Some entries that bind do so weakly or less than the wild type. Tags and fused reporters may be left off the sequences shown.

Biological target: T1, FBXW8–FLAG (human FBXW8, FLAG-tagged) (human) (UniProt Q8N3Y1)
T1 sequence: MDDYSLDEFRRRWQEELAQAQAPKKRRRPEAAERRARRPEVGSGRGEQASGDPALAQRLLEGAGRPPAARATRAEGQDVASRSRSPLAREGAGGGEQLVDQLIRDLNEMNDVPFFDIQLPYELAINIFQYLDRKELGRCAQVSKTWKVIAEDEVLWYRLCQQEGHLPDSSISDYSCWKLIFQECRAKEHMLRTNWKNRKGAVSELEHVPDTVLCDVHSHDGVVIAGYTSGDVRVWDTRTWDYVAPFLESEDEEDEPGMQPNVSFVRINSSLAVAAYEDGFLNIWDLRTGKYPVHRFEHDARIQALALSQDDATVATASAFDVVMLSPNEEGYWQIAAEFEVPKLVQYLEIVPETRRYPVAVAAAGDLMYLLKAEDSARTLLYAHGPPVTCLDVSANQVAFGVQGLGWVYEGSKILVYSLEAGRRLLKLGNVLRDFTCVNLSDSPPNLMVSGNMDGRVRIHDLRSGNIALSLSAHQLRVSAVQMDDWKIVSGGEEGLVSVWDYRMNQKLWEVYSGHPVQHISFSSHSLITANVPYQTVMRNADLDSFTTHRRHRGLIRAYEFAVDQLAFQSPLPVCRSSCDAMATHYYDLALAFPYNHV
Assay: co-IP; anti-FLAG beads added to HEK293T whole-cell extract 48 h after expressing ATGL–FLAG or FBXW8–FLAG; RIPA buffer (50 mM Tris–HCl pH 7.4, 150 mM NaCl, 2 mM EDTA, 1.0% Triton X-100); overnight at 4 °C; six washes; immunoblot

binding: binds
B1: ATGL found with FBXW8–FLAG in HEK293T whole-cell extract (enzyme, UniProt Q96AD5 1-504)
chain: MFPREKTWNISFAGCGFLGVYYVGVASCLREHAPFLVANATHIYGASAGALTATALVTGVCLGEAGAKFIEVSKEARKRFLGPLHPSFNLVKIIRSFLLKVLPADSHEHASGRLGISLTRVSDGENVIISHFNSKDELIQANVCSGFIPVYCGLIPPSLQGVRYVDGGISDNLPLYELKNTITVSPFSGESDICPQDSSTNIHELRVTNTSIQFNLRNLYRLSKALFPPEPLVLREMCKQGYRDGLRFLQRNGLLNRPNPLLALPPARPHGPEDKDQAVESAQAEDYSQLPGEDHILEHLPARLNEALLEACVEPTDLLTTLSNMLPVRLATAMMVPYTLPLESALSFTIRLLEWLPDVPEDIRWMKEQTGSICQYLVMRAKRKLGRHLPSRLPEQVELRRVQSLPSVPLSCAAYREALPGWMRNNLSLGDALAKWEECQRQLLLGLFCTNVAFPPEALRMRAPADPAPAPADPASPQHQLAGPAPLLSTPAPEARPVIGALGL
